The values that follow are results of earlier work, collected in patent US9199026B2, “Modular extracorporeal systems and methods for treating blood-borne diseases” (SOMERSET GROUP ENTERPRISES, INC., priority 2011, dated 2015).

For the series, the system named is bacteria. The following applies: first line of the cell pair 'Spectrum, activity'.

Molecules are shown by their SMILES.

In the case of `O=C(O)c1cn(C2CC2)c2cc(N3CCNCC3)c(F)cc2c1=O` [Ciprofloxalin], the Spectrum result was “Gram negative,”.
